From PubChem BioAssay (NCI)
This list holds what a sample rich in hits left over. Active and inactive are the calls of the source. Cut-off read from the data, not from the text of the source: active = growth inhibition above about 70%; inactive = the rest.

How the values were obtained:
[1] = NCI Yeast Anticancer Drug Screen. Data for the rad52 strain (AID 147);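 note: 0% = growth of vehicle-treated control cultures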; settings: S. cerevisiae rad52 mutant growth inhibition, active compounds read high
How it was run: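 Vehicle-treated cultures served as the reference for growth inhibition of compound-exposed yeast bearing a DNA repair mutation.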

[2] = NCI Yeast Anticancer Drug Screen. Data for the mgt1 strain (AID 153); settings: S. cerevisiae mgt1 mutant growth inhibition, active compounds read high
How it was run: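 mgt1 strain exposed; growth vs vehicle control recorded as inhibition.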

[3] = NCI Yeast Anticancer Drug Screen. Data for the CLN2oe strain (AID 163);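 note: 0% = growth of vehicle-only control cultures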; settings: S. cerevisiae CLN2oe strain, active compounds read high
Method: Growth inhibition of yeast strains with defined genetic alterations is measured as a screen for potential anti-cancer activity. Selected strains with alterations in DNA damage repair or cell cycle control were exposed to compounds and growth inhibition was measured relative to vehicle treated controls. The strain used in this assay is CLN2oe

Measured: growth inhibition

CCOC(=O)NC1CCc2cc(OC)c(OC)c(OC)c2-c2ccc(OC)c(=O)cc21 (stereo not given)
inactive: [1]; at 1.2 µM 0% | [1]; at 3.7 µM 3% | [1]; at 11.0 µM 8% | [1]; at 33.0 µM 4% | [1]; at 100.0 µM 4% | [2]; at 1.2 µM 0% | [2]; at 3.7 µM 0% | [2]; at 11.0 µM -1% | [2]; at 33.0 µM -2% | [2]; at 100.0 µM -3% | [3]; at 1.2 µM -4% | [3]; at 3.7 µM -6% | [3]; at 11.0 µM -10% | [3]; at 33.0 µM -8% | [3]; at 100.0 µM -9%
